Test system: murine neural precursor cells (neurosphere cultures)
Experiment: HTS of LOPAC library against secondary neurosphere cultures, MTT proliferation assay at 3 μM, day 7 (z score, P value)
Assay type: cell-based, mouse

| SMILES | Z Score | Z score | Activity |
| --- | --- | --- | --- |
| COc1ccc(CC(C)NCC(O)c2ccc(O)c(NC=O)c2)cc1 (stereo not drawn) [Formoterol] | −0.8379 | −0.838 |  |
| Cl.Clc1ccc(N2CCN(Cc3c[nH]c4ncccc34)CC2)cc1 [L-745,870 hydrochloride] |  |  | yes |
